{"source": "patent US20050222013A1", "about": "“Methods for the use of inhibitors of histone deacetylase as synergistic agents in cancer therapy” (Georgetown University, priority 2003, published 2005)", "tested_on": "SQ-20B cells", "assay": "IC50 determination by clonogenic cell kill (24 hour drug treatment, colonies scored after 2 to 3 weeks)", "format": "cell-based, human", "conditions": "24 hour treatment", "experimental": "IC50 is defined as the concentration of the HDAC inhibitor that kills 50% of cells following treatment with the drug. To determine the IC50, a series of dilutions of drug is used over a broad range, for example 0-1.6 μg/ml. Approximately 100-400 cells are seeded into T-25 flasks in triplicate and treated with various concentrations of the drug. After a 24 hour treatment, the cells are washed with standard PBS (phosphate buffered saline) solution. Cells are then grown in fresh media for 2 to 3 weeks. Colonies are stained with crystal violet and scored. Concentrations of drugs showing 50% cell death represent the IC50 concentration."}
{"molecule": "O=C(CCCCCCC(=O)Nc1ccccc1)NO", "note": "[SAHA, suberonylanilide hydroxamic acid]", "values": [{"measurement": "IC50 (concentration that kills 50% of cells)", "result": 0.8, "unit": "µg/mL"}]}
